# Data reported in the supplement of paper PMC8728848.
# The other results are listed elsewhere or left out.
# B1: PX14343G-pdi-535-24-535 (Parabacteroides distasonis) (protein)
# chain: LDTVPKDQLAPSTTWQTEADAKGFIVGCYKDLLDGNTLLYLDCGSDIGYNNFPWEGFRPWGDGSLSSSNPGQILYDYKSIRKANTFLENVDKVTFSSDAVKANYVAQAKAIRAYKYFLMNWWYGGVPIISSYSSADEAKVERNTEQEVRDYIAKDLDEALAGIAEAPEARGYIAKGAVLAIKMREALYYGDWQKAKDAAKAIIDLKQYELDPDYTNLFKVSGVDSKEIILADQNIETLDGLGTIGQMYNNVDQGWSSIVPTQNLVDMYEMSDGLTKEESKTYDAKHPFANRDPRMAMTILYPGRDWRGDVLNTLDEKLQDGTVNKNFPTYTDNASKSALTWAKYLDPMDQYGDVWSSGACPIVFRYAEVLLTYAEAANELSGPSDEIYGYLNQIRQRVGMGEVDKAKYGTKDKLRELIRRERTVELAGEGLRRADIVRWQEDGKMLAEKVMNGDLLRVTGTINYGESEPTKRAEITGTAVIETRQFSSRNRYLPIPQTSMDKNPNLKQNPGY
# Experiments:
# Test in all cases: glycan array binding signal (z-score within array); higher = stronger binding
# Conditions in all cases: glycan notation: IUPAC condensed, linker removed
# [1] = target: GalNAc3S(b1-4)[Fuc(a1-3)]GlcNAc
# Procedure, shortened: (§1)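 The Consortium for Functional Glycomics database supplied 3228 glycan arrays, of which those lacking an available protein sequence were dropped. The binding signal, a within-array Z-score, was averaged across arrays of the same protein sequence and across linkers. Negative scores can be read as non-binding.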
# GalNAc4S6S(b1-4)GlcNAc = target: GalNAc4S6S(b1-4)GlcNAc
# Procedure, shortened: as §1
# GalNAc6S(b1-4)GlcNAc = target: GalNAc6S(b1-4)GlcNAc
# Procedure, shortened: as §1
# Glc(a1-4)Glc = target: Glc(a1-4)Glc
# Procedure, shortened: as §1
# [2] = target: Glc(a1-4)Glc(a1-4)Glc(a1-4)Glc
# Procedure, shortened: as §1
# Glc(a1-6)Glc(a1-6)Glc = target: Glc(a1-6)Glc(a1-6)Glc
# Procedure, shortened: as §1
# [3] = target: Glc(a1-6)Glc(a1-6)Glc(a1-6)Glc
# Procedure, shortened: as §1
# Glc(b1-4)Glc = target: Glc(b1-4)Glc
# Procedure, shortened: as §1
# Glc(b1-6)Glc = target: Glc(b1-6)Glc
# Procedure, shortened: as §1
# GlcA(b1-3)Gal = target: GlcA(b1-3)Gal
# Procedure, shortened: as §1
# GlcA(b1-3)GlcNAc = target: GlcA(b1-3)GlcNAc
# Procedure, shortened: as §1
# GlcA(b1-6)Gal = target: GlcA(b1-6)Gal
# Procedure, shortened: as §1
# [4] = target: GlcA3S(b1-3)Gal(b1-4)GlcNAc(b1-2)Man
# Procedure, shortened: as §1
# [5] = target: GlcA3S(b1-3)Gal(b1-4)GlcNAc(b1-3)Gal(b1-4)Glc
# Procedure, shortened: as §1
# [6] = target: GlcNAc(a1-3)Gal(b1-4)GlcNAc
# Procedure, shortened: as §1
# [7] = target: GlcNAc(a1-4)Gal(b1-3)GlcNAc
# Procedure, shortened: as §1
# [8] = target: GlcNAc(a1-4)Gal(b1-4)GalNAc
# Procedure, shortened: as §1
# [9] = target: GlcNAc(a1-4)Gal(b1-4)GlcNAc
# Procedure, shortened: as §1
# [10] = target: GlcNAc(a1-4)Gal(b1-4)GlcNAc(b1-3)Gal(b1-4)Glc
# Procedure, shortened: as §1
# [11] = target: GlcNAc(a1-4)Gal(b1-4)GlcNAc(b1-3)Gal(b1-4)GlcNAc
# Procedure, shortened: as §1
# [12] = target: GlcNAc(a1-4)Gal(b1-4)GlcNAc(b1-3)Gal(b1-4)GlcNAc(b1-3)Gal(b1-4)GlcNAc
# Procedure, shortened: as §1
# [13] = target: GlcNAc(a1-4)Gal(b1-4)GlcNAc(b1-3)Gal(b1-4)[Fuc(a1-3)]GlcNAc(b1-3)Gal(b1-4)[Fuc(a1-3)]GlcNAc
# Procedure, shortened: as §1
# [14] = target: GlcNAc(a1-6)Gal(b1-4)GlcNAc
# Procedure, shortened: as §1
# [15] = target: GlcNAc(b1-2)Gal(b1-3)GalNAc
# Procedure, shortened: as §1
# [16] = target: GlcNAc(b1-2)Man(a1-3)[GlcNAc(b1-2)Man(a1-6)]Man(b1-4)GlcNAc(b1-4)GlcNAc
# Procedure, shortened: as §1
# [17] = target: GlcNAc(b1-2)Man(a1-3)[GlcNAc(b1-2)Man(a1-6)]Man(b1-4)GlcNAc(b1-4)[Fuc(a1-6)]GlcNAc
# Procedure, shortened: as §1
# [18] = target: GlcNAc(b1-2)Man(a1-3)[GlcNAc(b1-4)][GlcNAc(b1-2)Man(a1-6)]Man(b1-4)GlcNAc(b1-4)GlcNAc
# Procedure, shortened: as §1
# [19] = target: GlcNAc(b1-2)Man(a1-3)[GlcNAc(b1-4)][GlcNAc(b1-2)Man(a1-6)]Man(b1-4)GlcNAc(b1-4)[Fuc(a1-6)]GlcNAc
# Procedure, shortened: as §1
# [20] = target: GlcNAc(b1-2)[GlcNAc(b1-4)]Man(a1-3)[GlcNAc(b1-2)Man(a1-6)]Man(b1-4)GlcNAc(b1-4)GlcNAc
# Procedure, shortened: as §1
# [21] = target: GlcNAc(b1-2)[GlcNAc(b1-4)]Man(a1-3)[GlcNAc(b1-4)][GlcNAc(b1-2)Man(a1-6)]Man(b1-4)GlcNAc(b1-4)GlcNAc
# Procedure, shortened: as §1
# [22] = target: GlcNAc(b1-2)[GlcNAc(b1-4)]Man(a1-3)[GlcNAc(b1-4)][GlcNAc(b1-2)[GlcNAc(b1-6)]Man(a1-6)]Man(b1-4)GlcNAc(b1-4)GlcNAc
# Procedure, shortened: as §1
# [23] = target: GlcNAc(b1-2)[GlcNAc(b1-4)]Man(a1-3)[GlcNAc(b1-4)][GlcNAc(b1-2)[GlcNAc(b1-6)]Man(a1-6)]Man(b1-4)GlcNAc(b1-4)[Fuc(a1-6)]GlcNAc
# Procedure, shortened: as §1
# [24] = target: GlcNAc(b1-2)[GlcNAc(b1-6)]Man(a1-6)[GlcNAc(b1-2)Man(a1-3)]Man(b1-4)GlcNAc(b1-4)GlcNAc
# Procedure, shortened: as §1
# [25] = target: GlcNAc(b1-2)[GlcNAc(b1-6)]Man(a1-6)[GlcNAc(b1-2)Man(a1-3)]Man(b1-4)GlcNAc(b1-4)[Fuc(a1-6)]GlcNAc
# Procedure, shortened: as §1
# [26] = target: GlcNAc(b1-2)[GlcNAc(b1-6)]Man(a1-6)[GlcNAc(b1-4)][GlcNAc(b1-2)Man(a1-3)]Man(b1-4)GlcNAc(b1-4)GlcNAc
# Procedure, shortened: as §1
# GlcNAc(b1-3)Fuc = target: GlcNAc(b1-3)Fuc
# Procedure, shortened: as §1
# GlcNAc(b1-3)Gal = target: GlcNAc(b1-3)Gal
# Procedure, shortened: as §1
# [27] = target: GlcNAc(b1-3)Gal(b1-3)GalNAc
# Procedure, shortened: as §1
binder,measurement,setting,value
B1,glycan array binding signal (z-score),[1],0.314
same,glycan array binding signal (z-score),GalNAc4S6S(b1-4)GlcNAc,0.279
same,glycan array binding signal (z-score),GalNAc6S(b1-4)GlcNAc,0.437
same,glycan array binding signal (z-score),Glc(a1-4)Glc,-0.422
same,glycan array binding signal (z-score),[2],0.888
same,glycan array binding signal (z-score),Glc(a1-6)Glc(a1-6)Glc,0.637
same,glycan array binding signal (z-score),[3],0.739
same,glycan array binding signal (z-score),Glc(b1-4)Glc,0.861
same,glycan array binding signal (z-score),Glc(b1-6)Glc,-0.808
same,glycan array binding signal (z-score),GlcA(b1-3)Gal,0.33
same,glycan array binding signal (z-score),GlcA(b1-3)GlcNAc,0.187
same,glycan array binding signal (z-score),GlcA(b1-6)Gal,-0.046
same,glycan array binding signal (z-score),[4],0.521
same,glycan array binding signal (z-score),[5],-0.239
same,glycan array binding signal (z-score),[6],-0.375
same,glycan array binding signal (z-score),[7],0.205
same,glycan array binding signal (z-score),[8],-1.02
same,glycan array binding signal (z-score),[9],2.04
same,glycan array binding signal (z-score),[10],0.258
same,glycan array binding signal (z-score),[11],-0.307
same,glycan array binding signal (z-score),[12],-0.853
same,glycan array binding signal (z-score),[13],1.32
same,glycan array binding signal (z-score),[14],1.81
same,glycan array binding signal (z-score),[15],-0.469
same,glycan array binding signal (z-score),[16],-0.317
same,glycan array binding signal (z-score),[17],-0.344
same,glycan array binding signal (z-score),[18],0.596
same,glycan array binding signal (z-score),[19],-0.585
same,glycan array binding signal (z-score),[20],-0.781
same,glycan array binding signal (z-score),[21],-0.642
same,glycan array binding signal (z-score),[22],-1.19
same,glycan array binding signal (z-score),[23],-0.715
same,glycan array binding signal (z-score),[24],0.316
same,glycan array binding signal (z-score),[25],-0.446
same,glycan array binding signal (z-score),[26],-0.748
same,glycan array binding signal (z-score),GlcNAc(b1-3)Fuc,0.719
same,glycan array binding signal (z-score),GlcNAc(b1-3)Gal,1.1
same,glycan array binding signal (z-score),[27],0.376

# 3 entries from above in a different format:
binder	measurement	setting	value
B1	glycan array binding signal (z-score)	Glc(a1-6)Glc(a1-6)Glc	0.637
same	glycan array binding signal (z-score)	[5]	-0.239
same	glycan array binding signal (z-score)	[8]	-1.02
